Data taken from PubChem BioAssay AID588590 (National Center for Advancing Translational Sciences (NCATS), 2011).
In all, about 390,000 compounds went through this assay and about 4,000 (1%) were called active. This list was built around the results that the source calls inconclusive (neither active nor inactive); the mix of calls is not that of the screen. Calls follow the shape of the dose curve; as a rule, active = well fitted inhibition curve with a large enough effect; inconclusive = small, poorly fitted or top-dose-only effect, or another doubt; inactive = no such curve, though single readings can be large or run the other way. Where the call is inconclusive, the potency comes from a doubtful curve fit.

Sequences of proteins named here, by UniProt entry; tags and fusion partners are left off. A change or cut given only in a name is not applied to a line headed by its entry.
UniProt Q9UNA4: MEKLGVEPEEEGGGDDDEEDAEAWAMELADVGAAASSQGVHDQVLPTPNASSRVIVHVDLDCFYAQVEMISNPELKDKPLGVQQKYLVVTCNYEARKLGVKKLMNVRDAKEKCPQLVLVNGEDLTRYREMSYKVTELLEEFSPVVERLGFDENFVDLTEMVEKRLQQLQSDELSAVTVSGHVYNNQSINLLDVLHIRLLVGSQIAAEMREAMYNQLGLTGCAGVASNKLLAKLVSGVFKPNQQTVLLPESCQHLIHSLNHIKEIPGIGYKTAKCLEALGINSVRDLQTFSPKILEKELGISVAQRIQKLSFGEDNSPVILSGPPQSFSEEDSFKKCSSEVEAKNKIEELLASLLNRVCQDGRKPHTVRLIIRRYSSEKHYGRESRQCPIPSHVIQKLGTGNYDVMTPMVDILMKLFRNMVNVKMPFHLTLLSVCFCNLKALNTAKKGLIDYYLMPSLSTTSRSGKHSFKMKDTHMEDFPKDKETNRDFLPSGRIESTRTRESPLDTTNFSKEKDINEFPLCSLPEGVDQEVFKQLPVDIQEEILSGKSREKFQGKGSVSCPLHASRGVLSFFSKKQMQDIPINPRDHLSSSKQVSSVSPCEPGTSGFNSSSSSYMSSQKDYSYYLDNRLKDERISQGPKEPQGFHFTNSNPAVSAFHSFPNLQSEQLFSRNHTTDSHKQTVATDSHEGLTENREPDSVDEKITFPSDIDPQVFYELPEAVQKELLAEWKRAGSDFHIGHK

biological target: DNA polymerase iota (Homo sapiens) (UniProt Q9UNA4); assay: qHTS for Inhibitors of Polymerase Iota; conditions: Pol iota fluorescent replication assay, 10 min; series mostly up to 115 µM
Outline: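 Fluorescent replication assay read twice, at 0 min and 10 min after adding 50 nM (final) substrate. Enzyme (10 nM) and compounds were first incubated 15 min at room temperature; enzyme-free buffer wells were negative controls.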
Potency is read from the fitted curve at half-maximal effect.

SMILES | Potency
CN(c1ccccc1C(=O)NCc1ccco1)S(C)(=O)=O | inconclusive: 15.8 µM [inhibitor, full curve, poor fit]
O=C(/C=C/c1ccco1)NC(=S)Nc1cccc([N+](=O)[O-])c1 | inconclusive: 14.1 µM [inhibitor, full curve, poor fit]
CNC(=O)C1CCC(Cn2c(=O)c3sccc3n(CC(=O)NCc3ccc(OC)cc3)c2=O)CC1 (stereo not given) | inactive
CCC(CO)Oc1cc(NCc2ccncc2)c2ncn(C(C)C)c2c1 (stereo not given) | inconclusive: 25.1 µM [inhibitor, single point]
CCOC(=O)Cc1csc(NC(=O)c2cccc(N3C(=O)CCC3=O)c2)n1 | inconclusive: 89.1 µM [inhibitor, full curve, poor fit]
CC(CCc1ccco1)NC(=O)Cn1ncc2c1-c1ccccc1OC2 (stereo not given) | inconclusive: 56.2 µM [inhibitor, partial curve, poor fit]
Cc1ccc(NC(=O)c2c(Cl)n(C)c3ccccc23)cc1 | inconclusive: 89.1 µM [inhibitor, single point]
O=C(c1cccs1)N1CCCC(c2nc3c(nnn3Cc3ccccc3Cl)c(=O)[nH]2)C1 (stereo not given) | inconclusive: 70.8 µM [inhibitor, partial curve, poor fit]
Clc1ccc(CN2CCC(CNc3ncnc4onc(-c5ccc(Cl)cc5)c34)CC2)cc1 | inactive
Oc1ccc(/C=N/N2CCCCC2)cc1O | inconclusive: 28.2 µM [inhibitor, partial curve]
COc1cc(CC(=O)OCC(=O)NCc2ccco2)cc(OC)c1OC | inconclusive: 50.1 µM [inhibitor, single point]
O=C(OC1CCOC1=O)c1ccc(-c2nc3ccccc3s2)s1 (stereo not given) | inconclusive: 39.8 µM [inhibitor, single point]
CN1CCN(C(=O)CCN2C(=O)/C(=C\c3ccc(Cl)cc3Cl)SC2=S)CC1 | inconclusive: 35.5 µM [inhibitor, partial curve, poor fit]
O=C(OCC#CCSc1nnc(-c2ccncc2)o1)c1cccs1 | inconclusive: 141 µM [inhibitor, single point]
Cc1ccc(S(=O)(=O)N2CCCCC2)cc1NS(=O)(=O)c1cccc(C(=O)O)c1 | inactive
O=c1c(-c2ccc(O)cc2O)coc2cc(O)cc(O)c12 | inconclusive: 63.1 µM [inhibitor, partial curve, poor fit]
Cc1ccc2c(c1)c(/C=C/c1cc[n+](C)cc1)c(C)n2C | inconclusive: 14.1 µM [inhibitor, partial curve, poor fit]
NS(=O)(=O)c1ccc(NC(=S)NNC(=O)c2ccc(Br)o2)cc1 | inactive
CCOc1ccc(C(=O)Nc2ccc3nn(-c4ccc(OC)c(Cl)c4)nc3c2)cc1 | inactive
CCOc1ccc2nc(SCC(=O)Nc3cccc(S(=O)(=O)NC4=NCCCCC4)c3)[nH]c2c1 | inconclusive: 70.8 µM [inhibitor, single point]

SMILES | Potency
O=C1CCCCc2sc(Br)c([N+](=O)[O-])c2N1 | inconclusive: 25.1 µM [inhibitor, full curve, poor fit]
Cc1c(Cl)cnc(NC(=O)COC(=O)C2CCCC2)c1Cl | inconclusive: 35.5 µM [inhibitor, partial curve]
O=C(O)c1cc(N/N=C/c2ccc(-c3ccc(F)cc3)o2)ccc1Cl | inconclusive: 15.8 µM [inhibitor, full curve, poor fit]
Cc1ccc(NC(=O)CCC(=O)c2cc(C)sc2C)nc1 | inconclusive: 11.2 µM [inhibitor, partial curve, poor fit]
Cc1ccc(S(=O)(=O)N2[C@@H](c3ccccc3)C(C(=O)O)=CC[C@H]2c2ccc(Cl)c(Cl)c2)cc1 | inactive
CCc1ccc(/C(C)=N/NC(=O)c2ccc(-n3cnnn3)cc2)cc1 | inconclusive: 89.1 µM [inhibitor, partial curve, poor fit]
CC[C@@H](C)[C@H]1O[C@]2(CC[C@@H]1C)C[C@@H]1C[C@@H](C/C=C(\C)[C@@H](O[C@H]3C[C@H](OC)[C@@H](O[C@H]4C[C@H](OC)[C@@H](O)[C@H](C)O4)[C@H](C)O3)[C@@H](C)/C=C/C=C3\CO[C@@H]4[C@H](O)C(C)=C[C@@H](C(=O)O1)[C@]34O)O2 | inconclusive: 11.2 µM [inhibitor, partial curve]
CCOC(=O)c1sc(NC(=S)NC(=O)CC(C)C)cc1C | inconclusive: 31.6 µM [inhibitor, single point]
CCC[C@@H](O)c1cc2cc(OC)c(OC)cc2c(=O)o1 | inconclusive: 79.4 µM [inhibitor, partial curve]
COC(=O)c1ccc(NC(=O)CSc2nc3cccnc3n2C)cc1 | inactive
O=c1cc(-c2ccc(O)cc2)oc2c1ccc1ccccc12 | inactive
O=C(Nc1ccccc1)c1nnsc1S(=O)c1ccc(Cl)cc1 (stereo not given) | inconclusive: 28.2 µM [inhibitor, partial curve]
CCOc1ccc(NC(=O)CC2Nc3ccccc3NC2=O)cc1 (stereo not given) | inactive
Cc1cc(C)cc(NS(=O)(=O)c2ccc3[nH]cc(C(=O)NC4CCCCC4)c(=O)c3c2)c1 | inactive
CCN(CC)CCCNc1oc(-c2ccccc2[N+](=O)[O-])nc1C#N | inconclusive: 12.6 µM [inhibitor, partial curve, poor fit]
O=C(CCCN1C(=O)/C(=C/c2ccccc2Cl)SC1=S)NNC(=O)c1cccnc1 | inconclusive: 28.2 µM [inhibitor, partial curve, poor fit]
COCCCNC(=O)c1ccc(-n2c(-c3ccccc3)cc3c2CCCC3)cc1 | inconclusive: 89.1 µM [inhibitor, single point]
O=C(NC(=S)N1CCN(c2ccc(F)cc2)CC1)c1cccs1 | inconclusive: 79.4 µM [inhibitor, single point]
O=c1oc2ccccc2n1Cc1cccc(F)c1 | inconclusive: 11.2 µM [inhibitor, partial curve, poor fit]
COc1ccc(O)c(/C=N/NC(=O)c2ccc(OCc3cccc(Br)c3)cc2)c1 | inconclusive: 17.8 µM [inhibitor, single point]

Ordered by molecular weight (falling): part of the list above.
SMILES | Potency
O=C(c1cccs1)N1CCCC(c2nc3c(nnn3Cc3ccccc3Cl)c(=O)[nH]2)C1 (stereo not given) | inconclusive: 70.8 µM [inhibitor, partial curve, poor fit]
CN1CCN(C(=O)CCN2C(=O)/C(=C\c3ccc(Cl)cc3Cl)SC2=S)CC1 | inconclusive: 35.5 µM [inhibitor, partial curve, poor fit]
NS(=O)(=O)c1ccc(NC(=S)NNC(=O)c2ccc(Br)o2)cc1 | inactive
